# Screening data, single-dose tests

By UniProt entry, the sequences of proteins in these tests, tags left out. Residues count along the entry.
UniProt A4I591, 1-473: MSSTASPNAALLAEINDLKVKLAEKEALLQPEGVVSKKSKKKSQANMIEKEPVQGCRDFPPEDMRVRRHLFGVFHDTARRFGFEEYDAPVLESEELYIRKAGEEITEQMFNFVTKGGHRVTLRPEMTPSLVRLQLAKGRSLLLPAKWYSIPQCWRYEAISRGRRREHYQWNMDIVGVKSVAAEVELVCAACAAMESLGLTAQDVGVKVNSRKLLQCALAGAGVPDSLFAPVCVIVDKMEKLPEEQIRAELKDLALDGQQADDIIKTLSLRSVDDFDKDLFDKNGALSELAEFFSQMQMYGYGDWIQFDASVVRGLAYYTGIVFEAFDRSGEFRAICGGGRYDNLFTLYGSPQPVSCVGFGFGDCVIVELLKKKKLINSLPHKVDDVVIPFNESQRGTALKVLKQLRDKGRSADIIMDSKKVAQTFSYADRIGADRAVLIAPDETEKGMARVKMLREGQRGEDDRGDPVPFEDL
UniProt P9WNZ1, whole entry: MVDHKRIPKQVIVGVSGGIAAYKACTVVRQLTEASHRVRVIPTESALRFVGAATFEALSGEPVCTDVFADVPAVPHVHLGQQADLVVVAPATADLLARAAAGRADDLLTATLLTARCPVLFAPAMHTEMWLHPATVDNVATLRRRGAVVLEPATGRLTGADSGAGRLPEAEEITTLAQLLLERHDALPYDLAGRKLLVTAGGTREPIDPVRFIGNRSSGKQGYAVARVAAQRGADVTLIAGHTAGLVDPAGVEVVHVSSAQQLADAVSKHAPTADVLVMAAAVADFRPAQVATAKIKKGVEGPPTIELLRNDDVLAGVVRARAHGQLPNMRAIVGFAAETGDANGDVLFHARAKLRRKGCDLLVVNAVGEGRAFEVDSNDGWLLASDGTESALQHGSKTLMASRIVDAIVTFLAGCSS

The values are deposited in ChEMBL (CHEMBL3988442, “University of Dundee, Small-Polar-MMV Screening Library” (2021)).

LiHisRS: 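Histidine-tRNA ligase, Leishmania infantum (UniProt A4I591). Enzyme assay of histidyl-tRNA synthetase; the read-out is not stated. Compounds at 30 µM. The record gives no direction; compounds that gave an IC50 in retests scored well above the rest, so higher reads as stronger inhibition. The assay is labelled LdHisRS but filed under L. infantum. About 69,000 compounds were tested under these conditions; 0.6% (about 410) showed 50% or more at least once.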
Leishmania in macrophages: 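Cell assay of Leishmania donovani living inside macrophages; the read-out is not stated. Compounds at 30 µM. The record gives no direction; compounds that gave an IC50 in retests scored well above the rest, so higher reads as stronger inhibition. About 69,000 compounds were tested under these conditions; 1.5% (about 1,000) showed 50% or more at least once.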
CoaBC: 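Enzyme assay of CoaBC with a phosphate dye (Biomol Green) read at 650 nm. Target: Coenzyme A biosynthesis protein CoaBC, Mycobacterium tuberculosis (UniProt P9WNZ1). Tested at 30 µM. Higher reads as stronger inhibition, judged from the few compounds that gave an IC50. Most strong results did not repeat in a second test. Size under these conditions: about 67,000 compounds, about 40 of them at 50% or above in at least one test.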

The filed quantity is “Percent Effect” (%).
The controls that fix the scale are not given in the record; negative values are as filed.
Compounds were drawn at random from those tested, without regard to their results.
Two or more numbers in one place are separate tests of the same structure; such repeats can differ widely.

{"compound": "CC(C)(C)c1cn2nc(N3CCCC3Cn3cccn3)sc2n1", "stereo": "stereo not given", "LiHisRS": 3.774, "Leishmania in macrophages": 9.803, "CoaBC": 9.895}
{"compound": "Cc1nccn1C1CCCN(C(=O)c2ccc3c(c2)COC3)C1", "stereo": "stereo not given", "LiHisRS": 12.31, "Leishmania in macrophages": 28.47, "CoaBC": 1.349}
{"compound": "CCc1ccc(CN2Cc3nccn3CC(Cn3cncn3)C2)o1", "stereo": "stereo not given", "LiHisRS": 18.09, "CoaBC": 5.008}
{"compound": "CN(C)c1cc2c(nn1)CCN(C(=O)Cc1ccc3c(c1)CCC3)C2", "LiHisRS": 30.56, "Leishmania in macrophages": 28.81, "CoaBC": 5}
{"compound": "Cn1cc(CN2CCO[C@H]3C(Cn4cccn4)CC[C@@H]32)cn1", "stereo": "stereo not given in full", "LiHisRS": 21.05, "CoaBC": -1.057}
{"compound": "O=C(NCc1cnc2n1CCN(Cc1ccsc1)CC2)C1CCC1.O=C(O)C(F)(F)F", "Leishmania in macrophages": 42.67}
{"compound": "Cc1cc(C(=O)N2CCCN(Cc3nccn3C(C)C)CC2)no1", "LiHisRS": 10.19, "Leishmania in macrophages": 12.82, "CoaBC": 0.7895}
{"compound": "Cn1ncc2c1CCCN(C(=O)C1CCC1)C2", "LiHisRS": 10.14, "Leishmania in macrophages": 6.771, "CoaBC": -3.417}
{"compound": "CCCS(=O)(=O)N1Cc2c(ncn2Cc2ccccc2)C[C@H]1C(=O)OC", "LiHisRS": 24.32, "Leishmania in macrophages": 18.69, "CoaBC": -4.126}
{"compound": "[H][C@@]12CCN(Cc3nccs3)C[C@@]1([H])O[C@H](C)C2", "Leishmania in macrophages": 26.86}
{"compound": "O=C(CCN1CCOC(C(F)(F)F)C1)NCc1cccc(Cl)c1", "stereo": "stereo not given", "LiHisRS": 15.38, "Leishmania in macrophages": -9.452, "CoaBC": 3.419}
{"compound": "CCOCCn1c(=O)n(Cc2ccccc2F)c2cc(C(=O)O)cnc21", "LiHisRS": 8.547, "Leishmania in macrophages": -31.66, "CoaBC": 17.09}
{"compound": "O=C(O)C(F)(F)F.O=C(O)C(F)(F)F.[H][C@@]12CCN(c3ccc(C)nn3)C[C@]1([H])[C@@H](CN(C)Cc1ccco1)OC2", "Leishmania in macrophages": -10.37}
{"compound": "CCC(NC(=O)c1c(C(=O)O)cnn1C)c1ccc(C)cc1C", "stereo": "stereo not given", "LiHisRS": 10.31, "Leishmania in macrophages": 28.32, "CoaBC": -4.049}
{"compound": "CC(C)c1nc2n(n1)CC(NCc1nc(-c3cccnc3)no1)CC2", "stereo": "stereo not given", "LiHisRS": 18.67, "Leishmania in macrophages": 2.656, "CoaBC": -7.179}
{"compound": "Cc1cc(C)n(NC(=O)c2ccccc2C)c(=O)c1", "LiHisRS": 14.43, "Leishmania in macrophages": 10.45, "CoaBC": 1.35}
{"compound": "CN1CCN(Cc2cnc3n2CCN(C(=O)c2cscn2)C3)CC1", "LiHisRS": 11.76, "Leishmania in macrophages": -20.02, "CoaBC": 1.015}
{"compound": "CN(C)c1ncc2c(n1)C1(CCN(Cc3ccccc3)C1)COC2.O=C(O)C(F)(F)F", "stereo": "stereo not given", "Leishmania in macrophages": 7.246}
{"compound": "COc1ccc(N2CCNC(C(N)=O)C2)cc1", "stereo": "stereo not given", "LiHisRS": 17.14, "Leishmania in macrophages": -2.566, "CoaBC": -4.369}
{"compound": "Cc1cc(N(C)C)nc(C2(C)CCCN2C(=O)c2ccccc2)n1", "stereo": "stereo not given", "LiHisRS": 10, "Leishmania in macrophages": 14.7, "CoaBC": 3.346}
{"compound": "CC(C)c1nc(CN2CCN(CC3CCCO3)CC2)cs1", "stereo": "stereo not given", "LiHisRS": 18.67, "Leishmania in macrophages": 13.71, "CoaBC": 6.923}
{"compound": "[H][C@]12CC[C@]([H])(CN(C3CCOCC3)C1)N(Cc1cnc(SCC)nc1)C2", "Leishmania in macrophages": 17.11}
{"compound": "CCC(C)NC(=O)Cc1c(C)nc2c(c1C)c(=O)[nH]n2C", "stereo": "stereo not given", "LiHisRS": 14.15, "Leishmania in macrophages": -5.579, "CoaBC": 8.182}
{"compound": "COc1c(CNCc2cccnc2N2CCOCC2)c(C)nn1C", "LiHisRS": 15.96, "Leishmania in macrophages": 3.721, "CoaBC": 8.885}
{"compound": "[H][C@@]12CCN(c3ncccn3)C[C@]1([H])[C@@H](CN(C)Cc1cccnc1)OC2", "Leishmania in macrophages": 16.3}
{"compound": "NCC(=O)N1CCC(c2cncc(Oc3cccnc3)n2)CC1", "LiHisRS": 16.49, "Leishmania in macrophages": "14.43 and 6.27", "CoaBC": 1.211}
{"compound": "COC(=O)c1sccc1CN1CCN(C(=O)c2ccc(C)o2)CC1", "LiHisRS": 7.692, "Leishmania in macrophages": 23.22, "CoaBC": 7.563}
{"compound": "Cn1cc(NC(=O)c2cccc3cccnc23)ccc1=O", "LiHisRS": 20.48, "Leishmania in macrophages": 0.2135, "CoaBC": 2.152}
{"compound": "Cc1c(C(=O)N2CCC2)nnn1-c1ccc2ncccc2c1", "LiHisRS": 31.33, "Leishmania in macrophages": 16.83, "CoaBC": "21.36 and 0"}
{"compound": "Cc1nc(C)n(CC2CN(CCc3ccccn3)CCO2)n1", "stereo": "stereo not given", "LiHisRS": 8.065, "Leishmania in macrophages": 30.68, "CoaBC": -0.489}
{"compound": "CCS(=O)(=O)N(C)CC(=O)Nc1ccc(Br)cn1", "LiHisRS": 22.97, "Leishmania in macrophages": 4.009, "CoaBC": -1.434}
{"compound": "Cc1ncsc1C(=O)NCCn1nc2ccccn2c1=O", "LiHisRS": 9.231, "Leishmania in macrophages": 5.034, "CoaBC": -0.3373}
{"compound": "Cc1ncsc1-c1nnc(C2CCCN2C(=O)CCn2cccn2)o1", "stereo": "stereo not given", "LiHisRS": 11.59, "Leishmania in macrophages": 31.68, "CoaBC": -0.5256}
{"compound": "CCSc1nnc(CCNC(=O)OC(C)(C)C)o1", "LiHisRS": -5.263, "Leishmania in macrophages": 10.05, "CoaBC": -3.03}
{"compound": "CC(C)CCN(C)Cn1ncc2cn(-c3ccccc3)nc2c1=O", "LiHisRS": 2.618, "Leishmania in macrophages": 14.08, "CoaBC": -19.57}
{"compound": "CN(Cc1csc(-c2ccccc2)n1)C(=O)CCNS(C)(=O)=O", "LiHisRS": 14, "Leishmania in macrophages": 19.25, "CoaBC": -5.693}

The first 2 entries again:

{"compound": "CC(C)(C)c1cn2nc(N3CCCC3Cn3cccn3)sc2n1", "stereo": "stereo not given", "LiHisRS": 3.774, "Leishmania in macrophages": 9.803, "CoaBC": 9.895}
{"compound": "Cc1nccn1C1CCCN(C(=O)c2ccc3c(c2)COC3)C1", "stereo": "stereo not given", "LiHisRS": 12.31, "Leishmania in macrophages": 28.47, "CoaBC": 1.349}